Test [1] has as its target IFITM3 tagged at the N terminus with LgBiT or SmBiT (human) (UniProt Q01628). As to the kind of experiment: split reporter.
Test [2] concerns the target endogenous IFITM1 (human (endogenous in A549)) (UniProt P13164). As to the kind of experiment: co-IP.
Test [3] has as its target endogenous IFITM2 (human (endogenous in A549)) (UniProt Q01629). Nature of the test: co-IP.
Test [4] concerns the target endogenous IFITM3 (human (endogenous in A549)) (UniProt Q01628). Nature of the test: co-IP.

Sequences of proteins named here, by UniProt entry; tags and fusion partners are left off.
UniProt Q01628: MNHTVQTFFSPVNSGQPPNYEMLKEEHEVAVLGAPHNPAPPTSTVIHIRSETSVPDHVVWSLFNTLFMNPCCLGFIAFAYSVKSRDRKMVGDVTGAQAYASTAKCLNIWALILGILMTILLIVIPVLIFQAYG
UniProt P13164: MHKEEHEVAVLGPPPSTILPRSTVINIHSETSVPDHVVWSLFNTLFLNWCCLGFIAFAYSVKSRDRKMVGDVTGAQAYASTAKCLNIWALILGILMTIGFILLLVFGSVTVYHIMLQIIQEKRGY
UniProt Q01629: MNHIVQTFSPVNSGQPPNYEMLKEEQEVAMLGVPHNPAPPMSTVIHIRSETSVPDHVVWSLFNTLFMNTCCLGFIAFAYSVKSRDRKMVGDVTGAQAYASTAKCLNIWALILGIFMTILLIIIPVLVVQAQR

In PMC8915953 (Frontiers in Microbiology, 2022) one finds binding data, which are given here for three molecules.

These are yes or no findings as the source states them, for the method shown. In cells and extracts the contact can be indirect. Some binding calls cover weakened binding; strength is not graded here. For some of these results: Sequences can lack the tags named with a protein.

With “IFITM3 tagged at the N terminus with LgBiT or SmBiT (from UniProt Q01628 1-133)”, in test [1], the binding result is listed as “binds”.

B1: endogenous ZMPSTE24 (protein, UniProt O75844 1-475)
chain: MGMWASLDALWEMPAEKRIFGAVLLFSWTVYLWETFLAQRQRRIYKTTTHVPPELGQIMDSETFEKSRLYQLDKSTFSFWSGLYSETEGTLILLFGGIPYLWRLSGRFCGYAGFGPEYEITQSLVFLLLATLFSALTGLPWSLYNTFVIEEKHGFNQQTLGFFMKDAIKKFVVTQCILLPVSSLLLYIIKIGGDYFFIYAWLFTLVVSLVLVTIYADYIAPLFDKFTPLPEGKLKEEIEVMAKSIDFPLTKVYVVEGSKRSSHSNAYFYGFFKNKRIVLFDTLLEEYSVLNKDIQEDSGMEPRNEEEGNSEEIKAKVKNKKQGCKNEEVLAVLGHELGHWKLGHTVKNIIISQMNSFLCFFLFAVLIGRKELFAAFGFYDSQPTLIGLLIIFQFIFSPYNEVLSFCLTVLSRRFEFQADAFAKKLGKAKDLYSALIKLNKDNLGFPVSDWLFSMWHYSHPPLLERLQALKTMKQH
With B1, the binding result in test [2], in test [3] and in test [4] was “binds” each time.

B2: ZMPSTE24-FLAG (protein, UniProt O75844 1-475)
chain: MGMWASLDALWEMPAEKRIFGAVLLFSWTVYLWETFLAQRQRRIYKTTTHVPPELGQIMDSETFEKSRLYQLDKSTFSFWSGLYSETEGTLILLFGGIPYLWRLSGRFCGYAGFGPEYEITQSLVFLLLATLFSALTGLPWSLYNTFVIEEKHGFNQQTLGFFMKDAIKKFVVTQCILLPVSSLLLYIIKIGGDYFFIYAWLFTLVVSLVLVTIYADYIAPLFDKFTPLPEGKLKEEIEVMAKSIDFPLTKVYVVEGSKRSSHSNAYFYGFFKNKRIVLFDTLLEEYSVLNKDIQEDSGMEPRNEEEGNSEEIKAKVKNKKQGCKNEEVLAVLGHELGHWKLGHTVKNIIISQMNSFLCFFLFAVLIGRKELFAAFGFYDSQPTLIGLLIIFQFIFSPYNEVLSFCLTVLSRRFEFQADAFAKKLGKAKDLYSALIKLNKDNLGFPVSDWLFSMWHYSHPPLLERLQALKTMKQH
With B2, the binding entry in test [2], in test [3] and in test [4] was “binds” each time.
